Our source for the cell number change and AC50 values is PubChem BioAssay AID2685 (National Center for Advancing Translational Sciences (NCATS), 2010).

The other results are listed elsewhere or left out. Shown are side measurements of this screen, not its main read-out; they come without a call. The list favours compounds with an active or inconclusive main result. Words in brackets tell the shape of the fitted curve; partial curves, single points and poor fits give uncertain potencies.

The nature of this test: qHTS Assay for Lipid Storage Modulators in Drosophila S3 Cells.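 As to cell number change: cells counted by Cell Tracker Red CMTPX staining in the red channel.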 Conditions: BODIPY lipid droplet fluorescence, 18-24 h; for cell number change: measured here: cell count max response, cells fed with added oleic acid. Put shortly: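 Laser-scanning cytometry quantifies lipid droplet accumulation (500–530 nm total intensity; droplet/cell object ratio) in oleic acid-fed (400 uM added) Drosophila S3 cells treated with a concentration series. 20 uM Triacsin C defined 100% inhibition.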
A general note: In qHTS, concentration-response curves come from the screen itself.

[1] abbreviates: measured here: cell number channel AC50, cells fed with added oleic acid.
[2] abbreviates: measured here: lipid fluorescence (Fed channel) AC50, cells fed with added oleic acid.

On to `O=S(=O)(c1ccc(Cl)cc1)c1ccc(Cl)cc1`, for which the cell number change came to 15.4%. Besides, the AC50 – broadly, the concentration at which the activity in the assay is half-maximal – under setting [1] was 0.461 µM [falling, single point]. For the same molecule, the AC50 under setting [2] was 0.58 µM [falling, single point].
Turning to `CN1C(=O)C(=Cc2c(OCc3cnc(Cl)s3)ccc3ccccc23)C(=O)N(C)C1=O`, the cell number change is -8.51%. Also, the AC50 under setting [2] is 0.116 µM [rising, single point].
Consider `O=c1[nH]c(=O)n(C2CCCCC2)c(O)c1/C=C/C=Nc1ccccc1`, for which the cell number change is -25.1%. Under setting [2], the AC50 is 20.6 µM [falling, partial curve, poor fit].
As to `CCCCCCCCCCCCn1ccc(=N)cc1`, the cell number change was -60%. The AC50 under setting [1] is 1.16 µM [falling, full curve].
For the molecule `O=C1NC(=O)C(CCc2ccccn2)(Cc2cccc(Cl)c2Cl)C(=O)N1c1ccc(Br)cc1` (centres undefined), the cell number change was 4.82%.
As to `COc1ccc(-n2nc(C(=O)NCC(=O)N3CCC4(CC3)OCCO4)c3ccccc3c2=O)cc1Cl`, the cell number change is -19.8%. Further, the AC50 under setting [2] was 29.1 µM [falling, partial curve].
Consider `COC(=O)C1=C(c2ccc(OCc3ccccc3)cc2)C[C@@H]2CC[C@H]1N2C(=O)NC1CCN(Cc2ccccc2)CC1`, for which the cell number change was -58%. Besides, the AC50 under setting [1] was 8.2 µM [falling, partial curve]. The AC50 under setting [2] is 3.66 µM [falling, full curve].
With `c1ccc2c3c(ccc2c1)OCC1CONC31` (centres undefined), the cell number change was -14.2%. Moreover, under setting [1], the AC50 was 0.13 µM [falling, full curve, poor fit]. The AC50 under setting [2] was 0.092 µM [falling, full curve, poor fit].
For the molecule `Cc1cc(CN(C)C)c(OC(=O)N(C)C)cc1C`, the cell number change was -7.64%. Moreover, the AC50 under setting [2] is 18.4 µM [falling, single point].
As to `COc1ccccc1N1CCN(Cc2ccc(Br)cc2)CC1`, the cell number change is -25.2%. Also, the AC50 under setting [2] is 29.1 µM [falling, single point].
On to `Cc1cc(N2C(=O)C3CCCN3C2c2ccccc2)no1` (centres undefined), for which the AC50 under setting [2] was 0.058 µM [rising, full curve].
On the same count and under the same terms, the result for `CN1CCN(C(=O)COc2ccc(Oc3ccccc3)cc2)CC1` reads 0.58 µM [rising, single point].
For `[N-]=[N+]=NCCN1CCC(O)CCC1=O` (centres undefined), the cell number change turned out to be 38.8%. Also, the AC50 under setting [2] was 0.58 µM [rising, single point].
With `CC12CCC(=O)C=C1CCC1C2CCC2(C)C(O)CCC12` (centres undefined), the cell number change is -0.538%. For the same molecule, the half-maximal activity concentration (AC50) under setting [2] was 29.1 µM [falling, single point].
For `Cn1c(C(=O)N2CCC3(CC2)OCCO3)cc2c(=O)n(C)c3ccccc3c21`, the cell number change stood at 89.3%. Also, the half-maximal activity concentration (AC50) under setting [1] is 8.2 µM [rising, partial curve]. Further, the half-maximal activity concentration (AC50) under setting [2] is 8.2 µM [rising, partial curve].
`O=C1/C(=C\c2ccncc2)N2CCC1CC2`: the cell number change is 12.7%. For the same molecule, the AC50 under setting [1] was 4.11 µM [rising, single point]. In addition, the AC50 under setting [2] was 2.59 µM [rising, single point].
In the case of `CCCCn1c(=O)c(C(=O)Nc2ccccc2C)c(O)c2ccccc21`, the cell number change is 0.338%. In addition, under setting [2], the AC50 is 1.46 µM [rising, full curve].
For `CC(=O)OC(CC(=O)O)C[N+](C)(C)C` (centres undefined), the AC50 under setting [1] is 20.6 µM [rising, single point].
Turning to `CN1CCN(Cc2cc(C(C)(C)C)c(O)c(C(C)(C)C)c2)CC1`, the cell number change turned out to be 10.8%. Further, the AC50 under setting [2] is 5.8 µM [falling, single point].
With `O=P(CN1CCN(c2ccccc2)CC1)(N1CCCCC1)N1CCCCC1`, the AC50 under setting [1] is 1.16 µM [rising, full curve] and the AC50 under setting [2] is 1.16 µM [rising, full curve].
As to `CC(C)c1c(CN(C)C(C)Cc2ccccc2)n(C)n(-c2ccccc2)c1=O` (centres undefined), the cell number change stood at 54%. Further, under setting [1], the AC50 was 14.6 µM [rising, partial curve]. The AC50 under setting [2] was 8.2 µM [rising, partial curve].
Take `CCOC(=O)C1C(=O)N(C)C2(C)CC1c1cc(OC)ccc1O2` (centres undefined): the cell number change was determined as 17.5%. Also, under setting [2], the AC50 is 2.31 µM [falling, partial curve].
As to `Cc1cccc(-n2c(O)c(C)c(=O)[nH]c2=S)c1`, the cell number change is -22.3%. Under setting [2], the AC50 was 29.1 µM [falling, single point].
As to `CN1CCN(P(=O)(c2ccccc2)c2nc3ccccc3s2)CC1` (centres undefined), the AC50 under setting [1] is 6.51 µM [falling, full curve].
In the case of `Nc1ccccc1Cl`, the cell number change came out at 3.16%.
With `C/C(=N\N1CCCCCC1)c1c(O)n(-c2ccccc2)c(=O)[nH]c1=O`, the cell number change is -66.7%. The AC50 under setting [1] is 29.1 µM [falling, partial curve, poor fit]. The AC50 under setting [2] is 6.51 µM [falling, single point].
`COC(=O)C1=C(c2ccc(F)cc2OCc2ccccc2)C[C@@H]2CC[C@H]1N2C(=O)N1CCOCC1`: the cell number change was determined as 11.8%.
`CC1=C(C(=O)OC(C)C)[C@]2(C(=O)N(CC(N)=O)c3ccccc32)C(C#N)=C(N)O1`: the AC50 under setting [2] was 16.4 µM [falling, single point].
`Cc1c(N=Cc2c(O)n(Cc3ccccc3)c(=O)[nH]c2=O)c(=O)n(-c2ccccc2)n1C`: the cell number change was 1.09%. The half-maximal activity concentration (AC50) under setting [2] was 7.31 µM [rising, partial curve, poor fit].
With `Cc1ccccc1CCNCc1cc2cccc(C)c2[nH]c1=O`, the cell number change is -40.9%. Also, under setting [1], the concentration at half-maximal activity (AC50) is 11.6 µM [falling, partial curve]. For the same molecule, the AC50 under setting [2] is 10.3 µM [falling, partial curve].
`O=C1NC(=O)N(c2ccccc2)C(=O)/C1=C/C=C/c1ccco1`: the cell number change was -32.6%. For the same molecule, under setting [1], the concentration at half-maximal activity (AC50) is 0.259 µM [falling, full curve, poor fit]. Also, under setting [2], the AC50 was 0.731 µM [falling, partial curve, poor fit].
Turning to `CC(C)(C#CC(=O)O)OOC(c1ccccc1)(c1ccccc1)c1ccccc1`, the cell number change amounted to 23.6%. Moreover, the AC50 under setting [2] was 0.58 µM [falling, single point].
With `O=C(Nc1ccccc1)NC1CC2CCC(C1)N2` (centres undefined), the cell number change was -2.23%. The AC50 under setting [2] was 1.3 µM [falling, full curve].
On to `Nc1c2c(nc3sc4c(c13)CCCCC4)CCCC2`, for which the cell number change stood at 6.9%. In addition, the half-maximal activity concentration (AC50) under setting [1] is 0.103 µM [rising, full curve, poor fit]. The AC50 under setting [2] is 3.66 µM [rising, single point].
On to `COC(=O)C1=C(c2ccc(-c3ccccc3)c(F)c2)C[C@@H]2CC[C@H]1N2C(=O)NC1CC1`, for which the cell number change is -12.3%. Besides, the AC50 under setting [2] was 3.66 µM [rising, full curve, poor fit].
For `Cc1nc2ccccc2c(=O)n1-c1cc(F)ccc1F`, the cell number change is 23.2%.
As to `Cc1ccc(S(=O)(=O)N2CN3CCN(C3)C2)cc1`, the cell number change was -13.7%. The AC50 under setting [2] is 6.51 µM [falling, single point].
For `COc1cccc(CN2CCN(Cc3cccc(F)c3)CC2)c1`, the cell number change amounted to 6.99%. In addition, under setting [2], the AC50 is 0.58 µM [rising, full curve, poor fit].
Regarding `COC(=O)C1=C(c2ccc(C(C)=O)cc2)C[C@@H]2CC[C@H]1N2C(=O)N1CCC(O)(c2ccc(Cl)cc2)CC1`, the cell number change is -6.32%. Also, the AC50 under setting [2] is 0.184 µM [rising, partial curve].
Turning to `Oc1c(Cl)cc(Cl)cc1CN1CCN(Cc2ccccc2)CC1`, the cell number change was -24.1%. Besides, the concentration at half-maximal activity (AC50) under setting [2] was 18.4 µM [falling, single point].
With `Clc1ccc(CCC(Cn2ccnc2)Sc2c(Cl)cccc2Cl)cc1` (centres undefined), the cell number change is -71.8%. For the same molecule, the AC50 under setting [1] was 29.1 µM [falling, single point]. Also, under setting [2], the AC50 was 29.1 µM [falling, single point].
For `CC(=NCc1ccc2c(c1)OCO2)c1c(O)n(-c2ccc(C)cc2)c(=O)[nH]c1=O`, the AC50 under setting [2] is 2.06 µM [rising, single point].
For `O=C1CCN(C(=O)C(Cl)Cl)N1`, the cell number change is -10.3%. Further, the AC50 under setting [2] was 0.82 µM [falling, full curve].
Consider `C=CCn1c(O)c(C(CC)=Nc2ccc(N(CC)CC)cc2)c(=O)[nH]c1=O`, for which the cell number change was determined as 9.19%. The AC50 under setting [2] was 16.4 µM [rising, single point].
`COc1ccc(F)cc1C(=O)C1CCCN(Cc2ccc(O)cc2)C1` (centres undefined): the cell number change is -11.4%.
For the molecule `Nc1c(C(=O)OCc2ccccc2)c2nc3ccccc3nc2n1Cc1cccs1`, the AC50 is, setting by setting: under setting [1], 0.651 µM [rising, full curve]; under setting [2], 1.3 µM [rising, full curve].
With `O=C1NC(=O)N(c2ccccc2)C(=O)/C1=C/c1ccc([N+](=O)[O-])s1`, the cell number change is -7.24%. For the same molecule, the half-maximal activity concentration (AC50) under setting [1] was 0.0651 µM [falling, full curve, poor fit].
Consider `COc1ccc(OCC(=O)N2CCN(C/C=C/c3ccccc3)CC2)cc1`, for which the cell number change was -3.5%. In addition, the half-maximal activity concentration (AC50) under setting [1] was 0.00461 µM [rising, full curve, poor fit].
On to `Cc1nc2ccccc2c(=O)n1-c1ccc(C(=O)O)cc1`, for which the AC50 under setting [2] is 0.0058 µM [rising, full curve, poor fit].
As to `CC(=O)OCC(=O)[C@H]1CC[C@H]2[C@@H]3CC[C@H]4C[C@H](O)CC[C@]4(C)[C@H]3C(=O)C[C@]12C`, the cell number change turned out to be 9.99%. Also, under setting [2], the AC50 is 0.164 µM [rising, full curve, poor fit].
In the case of `Fc1ccc2c(c1)nnn2C1CCN(Cc2nnnn2C2CCCCC2)CC1`, the cell number change is -24.5%. The AC50 under setting [2] is 0.82 µM [falling, single point].
As for `COC(=O)C1=C(c2cccc(C#N)c2)C[C@@H]2CC[C@H]1N2C(=O)NCc1cccc2ccccc12`, the cell number change turned out to be 14.3%. Further, the AC50 under setting [2] is 0.0326 µM [rising, partial curve, poor fit].
`O=c1[nH]c(CN2CC=C(c3ccccc3)CC2)nc2scc(-c3cccs3)c12`: the cell number change amounted to 10.2%. Further, under setting [1], the half-maximal activity concentration (AC50) was 6.51 µM [falling, single point]. Under setting [2], the AC50 is 6.51 µM [falling, single point].
Take `CC(=O)c1cccc(OCC(=O)N2CCN(CC(=O)Nc3cccc(F)c3)CC2)c1`: the cell number change was -32.6%. In addition, under setting [1], the AC50 was 10.3 µM [falling, partial curve]. Also, the AC50 under setting [2] is 2.59 µM [rising, full curve].
Turning to `CCn1c(O)c(/C=N/NC(=O)c2ccncc2)c(=O)[nH]c1=S`, the cell number change came to 133%. Besides, the AC50 under setting [1] is 16.4 µM [rising, single point]. Also, the concentration at half-maximal activity (AC50) under setting [2] was 18.4 µM [rising, partial curve, poor fit].
Turning to `CCOC(=O)c1c(C)n(Cc2ccco2)c2ccc(OC)cc12`, the cell number change is -37.3%. Under setting [1], the AC50 is 0.92 µM [falling, full curve].
